Data: paper PMC11143236
These are yes or no findings as the source states them, for the method shown. Binding seen in cells or lysates may run through a third protein. Here binding means that the protein was enriched with, or labelled near, the bait; the list need not be complete. Tags and fused reporters may be left off the sequences shown.

Sequences of proteins named here, by UniProt entry; tags and fusion partners are left off.
UniProt P11142: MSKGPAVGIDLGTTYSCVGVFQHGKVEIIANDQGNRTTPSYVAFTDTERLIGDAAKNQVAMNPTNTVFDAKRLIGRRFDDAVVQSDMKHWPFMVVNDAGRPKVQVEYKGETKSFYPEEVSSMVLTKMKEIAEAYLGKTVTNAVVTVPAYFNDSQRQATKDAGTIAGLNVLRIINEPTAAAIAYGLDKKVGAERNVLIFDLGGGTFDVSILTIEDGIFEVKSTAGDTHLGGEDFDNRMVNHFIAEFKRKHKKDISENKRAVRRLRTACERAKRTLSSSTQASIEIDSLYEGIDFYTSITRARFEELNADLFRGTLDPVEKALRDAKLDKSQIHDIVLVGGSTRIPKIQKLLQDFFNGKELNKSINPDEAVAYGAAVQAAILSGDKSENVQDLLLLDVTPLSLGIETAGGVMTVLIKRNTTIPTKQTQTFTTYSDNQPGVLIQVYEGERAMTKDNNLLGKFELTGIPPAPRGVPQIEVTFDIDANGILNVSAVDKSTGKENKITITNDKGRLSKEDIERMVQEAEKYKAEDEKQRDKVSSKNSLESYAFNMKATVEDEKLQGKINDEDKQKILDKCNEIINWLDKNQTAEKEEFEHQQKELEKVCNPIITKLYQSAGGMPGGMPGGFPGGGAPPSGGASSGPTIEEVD

Experiments:
Flag-YTHDF3 C474S = target: T1, Flag-YTHDF3 C474S (UniProt Q7Z739); test: affinity purification with mass spectrometry; Flag-YTHDF3 WT and C474S immunoprecipitates compared by LC-MS/MS; cells not given
T1 sequence: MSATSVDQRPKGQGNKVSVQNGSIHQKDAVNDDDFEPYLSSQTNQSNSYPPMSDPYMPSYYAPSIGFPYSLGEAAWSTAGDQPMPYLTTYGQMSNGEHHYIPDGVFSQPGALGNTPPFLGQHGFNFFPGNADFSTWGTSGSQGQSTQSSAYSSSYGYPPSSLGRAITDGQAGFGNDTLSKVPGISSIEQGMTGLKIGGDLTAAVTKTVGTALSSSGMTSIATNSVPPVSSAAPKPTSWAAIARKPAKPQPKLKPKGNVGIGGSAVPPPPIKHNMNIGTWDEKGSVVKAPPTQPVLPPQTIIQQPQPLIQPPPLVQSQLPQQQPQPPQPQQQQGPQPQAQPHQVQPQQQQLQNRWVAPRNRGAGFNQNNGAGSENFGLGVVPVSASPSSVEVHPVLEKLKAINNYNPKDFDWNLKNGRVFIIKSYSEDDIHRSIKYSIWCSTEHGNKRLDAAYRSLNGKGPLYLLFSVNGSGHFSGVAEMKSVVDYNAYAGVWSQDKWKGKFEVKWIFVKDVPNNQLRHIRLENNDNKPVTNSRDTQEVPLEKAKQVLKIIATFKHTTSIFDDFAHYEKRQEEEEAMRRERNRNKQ

Flag-ZDHHC20 = target: T2, Flag-ZDHHC20 (UniProt Q5W0Z9); test: affinity purification with mass spectrometry; Flag-ZDHHC20 immunoprecipitated with Flag antibody from PANC-1 cells; beads digested with trypsin, LC-MS/MS
T2 sequence: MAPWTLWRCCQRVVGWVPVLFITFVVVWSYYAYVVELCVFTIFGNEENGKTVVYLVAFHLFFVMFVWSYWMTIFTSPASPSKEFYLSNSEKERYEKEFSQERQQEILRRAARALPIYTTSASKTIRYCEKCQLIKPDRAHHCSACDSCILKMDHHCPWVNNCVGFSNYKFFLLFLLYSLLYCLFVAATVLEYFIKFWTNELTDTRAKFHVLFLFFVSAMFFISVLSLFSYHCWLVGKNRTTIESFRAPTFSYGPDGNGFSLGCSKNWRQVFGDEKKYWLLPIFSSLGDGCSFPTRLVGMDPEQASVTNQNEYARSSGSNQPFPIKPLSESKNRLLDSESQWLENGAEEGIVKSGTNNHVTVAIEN

Row | binding (Flag-YTHDF3 C474S) | binding (Flag-ZDHHC20) | Substance
1 | binds |  | HSC70 (from UniProt P11142 1-646)
2 |  | binds | YTH domain-containing family protein 3 (YTHDF3), endogenous (from UniProt Q7Z739 1-585)
